Where “and” joins values, the source holds several entries; their conditions need not be identical. Identical values can stand only once. The list shows a part of the results. Shown are side measurements of this screen, not its main read-out; they come without a call. The list favours compounds with an active or inconclusive main result. The note in brackets gives the kind of curve behind each potency; many fits are weak.
Assay: qHTS Assay for Modulators of Lamin A Splicing
Settings: HeLa LMNA splicing GFP/RFP minigene ratio, 48 h
How it was run: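 Read-out is the ratio of GFP to DsRed2 object intensity, acquired by 488 nm laser-scanning cytometry on HeLa lamin A-EGFP minigene reporter cells. Compound incubation 48 hrs at 37 °C in Opti-MEM with 2% FBS; DMSO 0.5% final.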

[1] = measured here: GFP splicing reporter channel
[2] = measured here: RFP viability control channel

**Q.** Which AC50 [1] does the source give for `Cc1cccc(OCC(=O)N2CCN(Cc3ccc4c(c3)OCO4)CC2)c1` here?
**A.** 0.158 µM [falling, full curve, poor fit]

**Q.** Which results are given for `CCOc1ccc(CC2C(=O)NC(=O)N(c3ccc(CC)cc3)C2=O)cc1` (stereo not drawn)?
**A.** AC50 [1]: 5.62 µM [rising, single point]; AC50 [2]: 5.62 µM [rising, single point]

**Q.** For `COc1cccc(C(=O)C2CCCN(Cc3ccon3)C2)c1` (stereo not drawn), which AC50 [2] is on record?
**A.** 0.251 µM [falling, full curve, poor fit]

**Q.** Which AC50 [2] does the source give for `C[C@H]1O[C@H]1P(=O)(O)O` here?
**A.** 0.00891 µM [falling, full curve, poor fit]

**Q.** For `CCN(CC)C(=O)N[C@@H]1C=C2c3cccc4[nH]cc(c34)C[C@H]2N(C)C1`, which AC50 [2] is on record?
**A.** 0.00316 µM [rising, full curve, poor fit]

**Q.** With `Cc1ccc(-n2c(/C=C/c3cc(Br)cs3)nc3ccccc3c2=O)cc1` as the compound, how does the AC50 [2] read?
**A.** 10 µM [rising, single point]

**Q.** Which results are given for `N[C@H]1C[C@H]1c1ccccc1`?
**A.** AC50 [1]: 6.31 µM [falling, single point]; AC50 [2]: 14.1 µM [falling, single point]

**Q.** For `COc1ccc(C(CN(C)C)C2(O)CCCCC2)cc1` (stereo not drawn), which AC50 [2] is on record?
**A.** 0.002 µM [falling, full curve, poor fit]

**Q.** With `CC(C)C(=O)Nc1ccc([N+](=O)[O-])c(C(F)(F)F)c1` as the compound, how does the AC50 [1] read?
**A.** 0.0447 µM [falling, full curve]

**Q.** What about the AC50 [2] of the same compound?
**A.** 0.0794 µM [falling, full curve]

**Q.** Which results are given for `COc1cc(/C=C/C(=O)c2c(O)n(CCc3ccccc3)c(=O)[nH]c2=O)ccc1O`?
**A.** AC50 [1]: 35.5 µM [falling, single point]; AC50 [2]: 3.55 µM [rising, partial curve, poor fit]

**Q.** With `O=c1c2ccccc2nc(/C=C\c2ccccc2F)n1-c1ccc(O)cc1` as the compound, how does the AC50 [1] read?
**A.** 35.5 µM [falling, single point]

**Q.** Which AC50 [2] does the source give for `CN1CCN(S(=O)(=O)c2cnc(Cl)c(Br)c2)CC1` here?
**A.** 20 µM [rising, single point]

**Q.** Which results are given for `CC(=O)Nc1ccc(N=Cc2c(O)n(Cc3ccco3)c(=O)[nH]c2=O)cc1`?
**A.** AC50 [1]: 5.01 µM [falling, single point]; AC50 [2]: 5.01 µM [falling, partial curve]

**Q.** For `CCOc1ccc(-n2c(-c3cccs3)nc3ccccc3c2=O)cc1`, which AC50 [2] is on record?
**A.** 0.708 µM [falling, full curve]

**Q.** Which AC50 [1] does the source give for `CCN1C(=O)c2ccccc2Sc2ccc(C(=O)N3CCC4(CC3)OCCO4)cc21` here?
**A.** 12.6 µM [rising, single point]

**Q.** And the AC50 [2]?
**A.** 12.6 µM [rising, partial curve]

**Q.** Which results are given for `CCOC(=O)CC(NC(=O)C(Cc1ccc(N(CCCl)CCCl)cc1)NC(C)=O)C(=O)OCC` (stereo not drawn)?
**A.** AC50 [1]: 3.98 µM [falling, full curve]; AC50 [2]: 3.16 µM [falling, full curve]

**Q.** With `CNC(=O)Oc1ccc2c(c1)[C@]1(C)CCN(C)[C@@H]1N2C` as the compound, how does the AC50 [2] read?
**A.** 0.00398 µM [rising, full curve, poor fit]

**Q.** With `Cc1cc(-n2c(/C=C/c3ccc(Br)s3)nc3ccccc3c2=O)ccc1Br` as the compound, how does the AC50 [1] read?
**A.** 2 µM [rising, partial curve]

**Q.** What about the AC50 [2] of the same compound?
**A.** 0.501 µM [rising, full curve, poor fit]

**Q.** Which AC50 [1] does the source give for `Cn1c(=O)n(C)c2cc([N+](=O)[O-])c(N3CCNCC3)cc21` here?
**A.** 35.5 µM [falling, single point]

**Q.** For `COc1ccccc1-c1nn2c(=O)cc(CN3CCN(C(=O)Nc4ccc(C)cc4Cl)CC3)nc2s1`, which AC50 [1] is on record?
**A.** 1.26 µM [rising, full curve, poor fit]

**Q.** And the AC50 [2]?
**A.** 2.51 µM [rising, full curve, poor fit]

**Q.** What does the source list for `CC(=O)N1CCN(c2ccc(OC[C@@H]3CO[C@@](Cn4ccnc4)(c4ccc(Cl)cc4Cl)O3)cc2)CC1`?
**A.** AC50 [1]: 0.0316 µM [falling, full curve]; AC50 [2]: 0.0112 µM [falling, full curve]

**Q.** What does the source list for `NC(Cc1ccc(N(CCCl)CCCl)cc1)C(=O)O` (stereo not drawn)?
**A.** AC50 [1]: 11.2 µM [falling, partial curve]; AC50 [2]: 15.8 µM [falling, partial curve]

**Q.** Which AC50 [1] does the source give for `COc1ccc(C[C@H]2c3cc(OC)c(OC)cc3CCN2C)cc1OC` here?
**A.** 0.2 µM [falling, single point]

**Q.** And the AC50 [2]?
**A.** 0.316 µM [falling, single point]

**Q.** Which AC50 [2] does the source give for `OC(c1ccccc1)(c1ccccc1)C1CN2CCC1CC2` (stereo not drawn) here?
**A.** 0.355 µM [falling, partial curve]

**Q.** Which results are given for `CN(C)c1nc(-c2ccccc2)[n+](C)s1`?
**A.** AC50 [1]: 0.708 µM [rising, single point]; AC50 [2]: 0.158 µM [rising, single point]

**Q.** Which AC50 [2] does the source give for `CCN(CC)C1=NC(=[N+](CC)CC)c2ccccc21` here?
**A.** 17.8 µM [falling, partial curve]

**Q.** For `Cc1ccc(Cc2c(C)nc3nc(SCC(=O)N4CCC5(CC4)OCCO5)nn3c2C)cc1`, which AC50 [2] is on record?
**A.** 35.5 µM [rising, single point]

**Q.** Which AC50 [1] does the source give for `Cc1ccc(Cn2cc(C=O)c(-c3ccc(C)cc3)n2)cc1` here?
**A.** 25.1 µM [rising, partial curve, poor fit]

**Q.** Which AC50 [1] does the source give for `CN(C)C(=O)Oc1cccc([N+](C)(C)C)c1` here?
**A.** 44.7 nM [falling, full curve, poor fit] and 3.98 µM [rising, full curve, poor fit] and 20 µM [rising, single point]

**Q.** What about the AC50 [2] of the same compound?
**A.** 5.01 µM [rising, full curve] and 4.47 nM [falling, full curve, poor fit]

**Q.** With `O=C(Oc1cccc2cccnc12)c1ccccc1` as the compound, how does the AC50 [1] read?
**A.** 2 µM [falling, partial curve]

**Q.** What about the AC50 [2] of the same compound?
**A.** 3.98 µM [falling, partial curve]

**Q.** Which results are given for `O=c1[nH]cnc2[nH]ncc12`?
**A.** AC50 [1]: 0.447 µM [falling, full curve, poor fit]; AC50 [2]: 6.31 µM [falling, partial curve, poor fit]

**Q.** Which AC50 [1] does the source give for `CC12CN3C(O)C(C)(C1)CC(C)(C2)C3O` (stereo not drawn) here?
**A.** 11.2 µM [rising, single point]

**Q.** What about the AC50 [2] of the same compound?
**A.** 11.2 µM [rising, single point]

**Q.** For `Cc1cc(O)c2c(c1)C(=O)c1cc(O)cc(O)c1C2=O`, which AC50 [1] is on record?
**A.** 22.4 µM [falling, partial curve]

**Q.** And the AC50 [2]?
**A.** 0.00562 µM [falling, full curve, poor fit]

**Q.** With `C=CCn1c(O)c(C(C)=NCc2cc(OC)cc(OC)c2)c(=O)[nH]c1=O` as the compound, how does the AC50 [2] read?
**A.** 8.91 µM [rising, partial curve, poor fit]

**Q.** Which AC50 [1] does the source give for `COc1cc2c(cc1OC)[C@@H]1C(=O)c3ccc(OC)c(CC=C(C)C)c3OC1CO2` (stereo partly drawn) here?
**A.** 11.2 µM [falling, partial curve, poor fit]

**Q.** What about the AC50 [2] of the same compound?
**A.** 20 µM [falling, partial curve]

**Q.** Which AC50 [2] does the source give for `c1ccc(-c2ccc(-c3n(-c4ccccn4)c4ccccc4[n+]3-c3ccccn3)cc2)cc1` here?
**A.** 11.2 µM [rising, partial curve, poor fit]

**Q.** Which AC50 [1] does the source give for `O=C1C=Cc2ccccc2C1=O` here?
**A.** 35.5 µM [falling, partial curve, poor fit]

**Q.** What about the AC50 [2] of the same compound?
**A.** 0.0224 µM [falling, full curve]

**Q.** Which AC50 [1] does the source give for `CC(N)C(=O)OC(C)(C)Cc1ccc(Cl)cc1` (stereo not drawn) here?
**A.** 12.6 µM [falling, partial curve, poor fit]

**Q.** What about the AC50 [2] of the same compound?
**A.** 8.91 µM [falling, partial curve, poor fit]

**Q.** With `Cc1ccc(-n2c(/C=C/c3ccc(Br)s3)nc3ccccc3c2=O)cc1` as the compound, how does the AC50 [2] read?
**A.** 1.41 µM [rising, full curve]

**Q.** What does the source list for `CCS(=O)(=O)N1N=C(c2cccc(NS(C)(=O)=O)c2)CC1c1ccccc1` (stereo not drawn)?
**A.** AC50 [1]: 0.794 µM [rising, full curve]; AC50 [2]: 1.26 µM [rising, single point]

**Q.** For `COc1cc(OC)c(OC)cc1/C=C1\C(=O)NC(=O)N(Cc2ccccc2)C1=O`, which AC50 [2] is on record?
**A.** 0.501 µM [falling, partial curve, poor fit]

**Q.** For `CC[n+]1c(-c2ccccc2)c2cc(N)ccc2c2ccc(N)cc21`, which AC50 [1] is on record?
**A.** 11.2 µM [falling, partial curve]

**Q.** What about the AC50 [2] of the same compound?
**A.** 22.4 µM [falling, single point]

**Q.** With `O=c1c2ccccc2nc(/C=C/c2cccc3ccccc23)n1-c1ccccc1Cl` as the compound, how does the AC50 [2] read?
**A.** 0.0224 µM [rising, full curve, poor fit]

**Q.** Which AC50 [1] does the source give for `Fc1ccc2c(c1)nnn2C1CCN(Cc2nnnn2CCc2ccccc2)CC1` here?
**A.** 1.78 µM [rising, full curve]

**Q.** With `CNC(=O)OCC[N+](C)(C)C` as the compound, how does the AC50 [1] read?
**A.** 0.282 µM [rising, full curve, poor fit]

**Q.** What does the source list for `C[C@]12CC[C@@H]3c4ccc(O)c(O)c4CC[C@H]3[C@@H]1CC[C@@H]2O`?
**A.** AC50 [1]: 7.08 µM [falling, full curve, poor fit]; AC50 [2]: 8.91 µM [falling, partial curve, poor fit]

**Q.** Which results are given for `ClC(Cl)(Cl)Cl`?
**A.** AC50 [1]: 0.1 µM [rising, full curve, poor fit]; AC50 [2]: 0.00141 µM [rising, full curve, poor fit]

**Q.** Which AC50 [2] does the source give for `CC(NCC#Cc1ccccc1)C(O)c1ccccc1` (stereo not drawn) here?
**A.** 0.00562 µM [falling, full curve, poor fit]

**Q.** Which AC50 [2] does the source give for `CC(=O)Nc1cc(Cl)c(N=Cc2ccc(O)cc2O)cc1Cl` here?
**A.** 12.6 µM [rising, partial curve, poor fit]

**Q.** For `CC(=O)Nc1ccccc1C(=O)OCc1ccccc1F`, which AC50 [2] is on record?
**A.** 0.00316 µM [falling, full curve, poor fit]

**Q.** Which AC50 [1] does the source give for `CC1(C)C(=O)[C@@H]2OC2[C@@]2(C)C1CC(O)[C@]1(C)C2CC[C@@]2(C)C(c3ccoc3)OC(=O)C3OC312` (stereo partly drawn) here?
**A.** 14.1 µM [rising, single point]

**Q.** With `O=C(CC1CCCCC1)c1c(O)c2ccccc2oc1=O` as the compound, how does the AC50 [2] read?
**A.** 20 µM [rising, single point]

**Q.** Which AC50 [2] does the source give for `CC(C)(C)NCC1(CO)SC(N)=NC1=O` (stereo not drawn) here?
**A.** 12.6 µM [rising, partial curve]
